We go through 107 sequences from PubChem BioAssay AID1508600 (Functional Genomics Laboratory (NCATS/FGL), 2020).

In all, about 53,000 sequences went through this assay and about 3,700 (7%) were called active.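 How the source made its calls: active means gene knockdowns whose robust z-score for IL-1 alpha signal is at least 2 or at most -2, so actives lie on both sides; inactive means the rest.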 Some of the results follow.

The nature of the assay: Components of the Cytosolic LPS Sensing Pathway: Gene Identification via Genome-wide siRNA Screen.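 Further: robust z of the log signal after scaling to non-targeting control siRNA wells of the plate.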 As to conditions: RAW264.7 macrophages, IL-1a HTRF, actives lie on both sides, screened at 100 nM (by protocol), cells primed 5 h with Pam3CSK4 first. Summed up: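 Supernatant IL-1a by HTRF from RAW264.7 cells primed with Pam3CSK4 (5 hours) and transfected with LipidA (24 hour) after 48h siRNA knockdown at 100 nM; cell viability checked with CellTiter-Glo.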
(In general: In TR-FRET formats the signal depends on donor and acceptor labels being close together.)
Turning to “GGCUUUUCAGACCAAGCUUTT against 3830406C13Rik”, the z-score was inactive: 0.322. Then CGAGUUUCAUCGAACGUGUTT against Rnf43, with inactive: 0.593; and ACUGGGUUCUUAGUUGUAUTT against Olfr811, with inactive: 0.234. As for “GGAGAAAGAAAGCAGUUUUTT against 2310067E19Rik”, the figure is inactive: 1.55; as for GGACGUGACAGACAUUAUUTT against Htr5b, active: -2.81; as for GGAUGAAAAUGAGUGGAAATT against Cdv3, inactive: -1.51. Then CCAUUACAGGGUUAUUGCATT against Rnf8, with inactive: -0.127; and GCUUUCUACACCAUUCUUATT against Olfr165, with inactive: 0.52. Take GCCCUUGAACGGAGAAUAGTT against Brk1: the z-score was inactive: -1.59. As for GGAGCUCAACAGUGAGAACTT against Specc1l, the figure is inactive: 0.299.

As to GGUGAUGUACAAAGCCAAUTT against Gab3, the z-score is inactive: 1.27. Regarding UAUGGACGCAUUGGAGCCATT against Olfr348, the z-score is inactive: 0.384.

For the sequence “GCAGUUUCGUUCCUACUCGTT against Cdkn2aipnl”, the z-score is inactive: 0.796. Regarding GCAUUAUCCAGAACUUAGATT against Sema3f, the z-score is inactive: 0.902.

As to UUUCCAGUCUCGCCCGAUUTT against Elmo1, the z-score is inactive: 1.37. As for CCUGCUACUAUUGAAGUUGTT against Gtf3c2, the figure is inactive: 0.25; as for ACUUCUCCAAGCUGAACCUTT against Mettl7a2, inactive: -0.187; as for GGAGGAUCAAAAACUUGUUTT against Pomk, inactive: -0.828.

For the sequence AGCCUAGCCUUUUUUGUACTT against Mt2, the z-score is inactive: -0.142. Then GGCCUUUAGUUUAAUCCUATT against Ubxn2a, with inactive: -0.233; and GAGGUACCUCUACACAGAUTT against Fgf21, with inactive: -0.261; and GGCUUCAAAGCAUGACCAGTT against Ccr1, with inactive: -0.528. GCAAGUCAGCUACAACUGUTT against Rnasek: the z-score was inactive: 0.0313. Then GCAUCAGAGAAGUGCGAGCTT against Pafah2, with inactive: -0.0121; and GGGACUUUCCAAACUAUAUTT against Irak1bp1, with inactive: -1.52. Then GGUAAAGAGGGAAGAGAUCTT against Akr1d1, with inactive: -0.875. Take GCUGGAUCACACUAUAUGUTT against Pgbd1: the z-score is inactive: 0.127. As to GGUCAUUCAUAAGCUCCUGTT against Ncf1, the z-score was inactive: -0.482. As for CGUGUUCUAUGAUGGUAAUTT against Selenoo, the z-score is inactive: -0.197. Then GGAAUUUUUUUCUUCGAUCTT against Sema3a, with inactive: -0.0318; and GGAGAAAACGUGAUGAGGATT against Snrnp200, with inactive: -1.54; and CCUCAUCGUAAGAGACAUATT against Arhgef2, with inactive: -0.903. As for GGAAGAGAAGUAUUGAGGATT against Pdgfa, the figure is inactive: -0.873; as for GCCACACUUAAGUCAGACCTT against Tprn, inactive: 0.597; as for CCUAUCAAAUUAAAUGCGCTT against Muc13, inactive: -0.6.

CCAACAGAACAAUCUGCAUTT against Olfr672: the z-score is inactive: 1.84. As to GGAGCAGGAACAGUAUUUCTT against B4gat1, the z-score is inactive: 0.731. For GGAAUACCACAUGCUUUUGTT against Ldah, the z-score is inactive: -0.288. As for GCAAUACGGAGUCUAGCCCTT against Hykk, the figure is inactive: 1.63; as for GGCUAUCUUUUCAGCUUUATT against Sox30, inactive: 0.212. As to GGUUAUAGACAUCCUUCAUTT against Acot5, the z-score was inactive: 0.816. As for GCCAUUACCCAAGAACUUUTT against Acsm4, the figure is inactive: 0.121.

For the sequence GGUUCAUCUUCAGCCAUCCTT against Cdcp1, the z-score was inactive: -0.905.

As to GGCAAGAUUUAGAGAAGCATT against Dnah8, the z-score was inactive: -0.665. With GGGAAUGAAUGCUUUACAUTT against Aspn, the z-score was inactive: 0.213. As to GGUCUUGGAGGAUCCCAAUTT against Tex13a, the z-score is inactive: -1.55. Take GGAUGACUUCUUCAAGCCATT against Nmrk1: the z-score was inactive: -0.485. As for CCUCUGUCAGUUGGUUAACTT against Mon2, the figure is active: -2.33. For the sequence GGUGGUAACAUUAACUGAGTT against Cenpk, the z-score is inactive: 0.41. As for GGUGUGGUCUAUGACACGUTT against Hdac5, the figure is inactive: 0.346. Then CGCCAGGUCAAGGAAUGGUTT against Sh2d1b2, with inactive: 1.24. Then GGACAAGCUGGAAUUAAACTT against Crocc, with inactive: -0.179; and GGAGAACUUCAGUGAGUCCTT against Ambp, with active: -2.43; and GGAUUAUGUGUCGUUUGGATT against Dnajc16, with inactive: -0.17. GGCAGUGGAUGUACAAAAATT against Sh3bgrl2: the z-score was inactive: -1.5.

GGAGUCAGGGCUGAUACAUTT against Lpin3: the z-score is inactive: 1.6. As for “GGGAGUUCCAAUCAUUCUUTT against 2200002J24Rik”, the figure is inactive: 0.667; as for “GCAAACUCAAGGCAUACAUTT against A930017M01Rik”, active: 4.27; as for GCGUAGCAGCCUACAGUCATT against Egflam, inactive: -1.44. As to GCCGAAGUAGCCAAAGCUATT against Clip2, the z-score was inactive: -1.13. As for GCAAUACGAAGGCGAAAGCTT against P3h4, the z-score is inactive: -1.68.

For GGCACUACUAAGAACCUUATT against Tmem69, the z-score was inactive: 0.728.

Take GGACCCUGACUCAUUGGCATT against Ubqln3: the z-score was inactive: 0.164.

For “GCAGCAUGUGAAAAGAAGGTT against 2010003K11Rik”, the z-score is inactive: -0.646.

As for GGACAGUCAAACAGAGAAGTT against Sun1, the z-score is inactive: -0.232. Regarding GGCACUUUAGUCUUUUCUCTT against Zfp296, the z-score is inactive: -0.634. Regarding GGGACGAAUUCAGCAAUUUTT against Pcdha6, the z-score is inactive: -0.253. GGAAUACAUCUACAAAGAGTT against Dock9: the z-score is inactive: -1.7.

In the case of GGUUGAGUUUCAGUGCAUCTT against Klhl28, the z-score was inactive: -0.632. With GGACUUGUCCAGCAUUGUATT against Donson, the z-score is inactive: 0.771.

In the case of GGCCAAUCAAGAGUAGUAUTT against Fgb, the z-score was inactive: 1.76. GGACAUGUUUGGUGACUAUTT against Helq: the z-score was inactive: -0.669. Then GCCUUUUAGCUGUUCAGGATT against Nlrc5, with inactive: 1.83. Take GGAAUUUAAAAGUAGCAAGTT against Zfp770: the z-score was inactive: 1.94. As for GGAAGGACUGUCAAAUGGCTT against Med11, the figure is inactive: -0.171. Regarding GGCUCGUGAUCGAAAUCUUTT against Tmed1, the z-score is inactive: -0.00483. As for GGACUGGUCCAUGAGAAGGTT against Klc4, the figure is inactive: 0.802. Then GGACUCGAGCACCAAAAAGTT against Dyrk1b, with inactive: 1.44; and GGAACUCCUGACAAAGAUGTT against Hscb, with inactive: 0.708. As for GGAUCCUUCUCUAAGGGCCTT against Dgcr8, the figure is inactive: -0.416; as for GCAUCUACUAUCCAAGUGATT against Alox8, active: 2; as for GGAGAUUCUAAAGACAGAGTT against Zfp687, inactive: -0.149. As to GCUAAUGUGGAGGACUCACTT against Chml, the z-score was inactive: -0.574. Consider GCCUAUUGUGGUAUUACAUTT against Cyp2c40, for which the z-score is inactive: -0.856. For GGCAGAAAGCUGAUGAAGCTT against Pcx, the z-score was inactive: -0.398. Take GCUGAGUUGGCUCAUCAACTT against Kdm2b: the z-score is inactive: -0.134. For the sequence GGAUUAAAGGAAGUGACUGTT against Oscar, the z-score was inactive: -1.65. Then GCCAAGAAUAGCAUUACUGTT against Abraxas1, with active: -2.45; and GGUGUUCCUGUCUUUCAUGTT against Chordc1, with inactive: -0.171. For GGCCAUGUGAAGAUGGUGGTT against Ank1, the z-score was inactive: 0.188. As for “UGUAUUUUGUCAAUGUGGCTT against Olfr104-ps”, the figure is inactive: 0.65; as for GUCUACAUCAACAUGCCUGTT against Hcst, inactive: 0.729; as for GGUGUUCAAAAUUCCUGCCTT against Mbl2, inactive: 0.0864.

GGGCCUUAUACAUUUUUCATT against Calm1: the z-score was inactive: 1.35. Then CCCUCUACAUGAUGACUGUTT against Olfr1280, with inactive: 0.335. Then CGAAUAUGAUACCAGAAAGTT against Il5ra, with inactive: -0.868; and GGCUGUGUAUGAAACAUUUTT against Susd4, with inactive: 0.954. For GCCAGUGGUAAAAUUGUUATT against Fam114a2, the z-score was inactive: 0.168. As for GCCUUGACCUGUCUUUCAATT against Tlr2, the figure is inactive: -0.161. Then GGAAGACGUAUUUGUACACTT against Ybx1, with inactive: -0.523; and GGCCAUGAGUCACAUGCUATT against Hcn3, with inactive: -0.373. Then GGACGUGCUUACAUUGUACTT against Pcdhb9, with inactive: -0.212.

For the sequence GCCUUGGCUGAAACUCUCATT against Cybb, the z-score is inactive: 0.612. On to UAGGUUCAUUAUGGUGCCATT against Cnih4, for which the z-score was inactive: -0.337. Then GGAAAAGACGGGAGAUUUGTT against Napepld, with inactive: 1.37; and GGACGAGAAACCAGUGACATT against Etaa1, with inactive: -0.796; and GCAGCUCAAUUAGAGUCCATT against Gart, with inactive: -0.11.
